Data as given in PubChem BioAssay AID1259424 (University of Nebraska Medical Center, 2018)
Purpose: 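Find knockdowns that reproduce the expression shifts seen after KSR1 loss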 (primary screen). System: human HCT116 colon cancer cells. Reagent: siRNA pool against human genes, 50 nM. Detection: 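Six signature mRNAs by branched-DNA multiplex assay, scaled to two housekeeping genes and non-targeting median, log2; matched to mean KSR1 knockdown profile by Pearson correlation and euclidean distance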. Direction: mean correlation with KSR1 profile: higher = expression change more like KSR1 knockdown.
The deposit covers about 14,000 reagents; below is a random part of them. 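Higher correlation or smaller distance means closer resemblance to KSR1 loss; control wells, including KSR1 knockdowns, recur on many plates.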 Further read-outs or replicates are left out here. The record does not give: the time to read-out.

TGFB2 [SID363994360] — mean correlation with KSR1 profile: -0.35
CTNND2 [SID363992612] — mean correlation with KSR1 profile: 0.0934
EDNRB [SID363991451] — mean correlation with KSR1 profile: 0.649
UBXN6 [SID364003341] — mean correlation with KSR1 profile: 0.331
HTR1D [SID363992151] — mean correlation with KSR1 profile: 0.655
MYBL2 [SID363993640] — mean correlation with KSR1 profile: 0.302
NEFM [SID363996292] — mean correlation with KSR1 profile: -0.149
COL3A1 [SID363991427] — mean correlation with KSR1 profile: -0.803
SERPINB13 [SID363998283] — mean correlation with KSR1 profile: -0.547
GSTM4 [SID363992137] — mean correlation with KSR1 profile: -0.0853
DCTN4 [SID363999959] — mean correlation with KSR1 profile: 0.052
SIX1 [SID363996838] — mean correlation with KSR1 profile: 0.144
NR1D1 [SID364002169] — mean correlation with KSR1 profile: 0.701
IKZF2 [SID363999988] — mean correlation with KSR1 profile: -0.0489
OTC [SID363991854] — mean correlation with KSR1 profile: 0.374
TRAPPC1 [SID364002095] — mean correlation with KSR1 profile: -0.716
VCAN [SID363995369] — mean correlation with KSR1 profile: 0.721
NECAB2 [SID364001372] — mean correlation with KSR1 profile: -0.603
ACAT1 [SID363991358] — mean correlation with KSR1 profile: 0.336

As entered above.
For “mean correlation with KSR1 profile”, HTR1D [SID363992151] has 0.655
Under “mean correlation with KSR1 profile”, UBXN6 [SID364003341] reads 0.331
